Drawing on PMC6104189, this text covers binding for one substance.

Protein sequences, listed by entry. Tags and fused reporters are not part of them.
UniProt P09874: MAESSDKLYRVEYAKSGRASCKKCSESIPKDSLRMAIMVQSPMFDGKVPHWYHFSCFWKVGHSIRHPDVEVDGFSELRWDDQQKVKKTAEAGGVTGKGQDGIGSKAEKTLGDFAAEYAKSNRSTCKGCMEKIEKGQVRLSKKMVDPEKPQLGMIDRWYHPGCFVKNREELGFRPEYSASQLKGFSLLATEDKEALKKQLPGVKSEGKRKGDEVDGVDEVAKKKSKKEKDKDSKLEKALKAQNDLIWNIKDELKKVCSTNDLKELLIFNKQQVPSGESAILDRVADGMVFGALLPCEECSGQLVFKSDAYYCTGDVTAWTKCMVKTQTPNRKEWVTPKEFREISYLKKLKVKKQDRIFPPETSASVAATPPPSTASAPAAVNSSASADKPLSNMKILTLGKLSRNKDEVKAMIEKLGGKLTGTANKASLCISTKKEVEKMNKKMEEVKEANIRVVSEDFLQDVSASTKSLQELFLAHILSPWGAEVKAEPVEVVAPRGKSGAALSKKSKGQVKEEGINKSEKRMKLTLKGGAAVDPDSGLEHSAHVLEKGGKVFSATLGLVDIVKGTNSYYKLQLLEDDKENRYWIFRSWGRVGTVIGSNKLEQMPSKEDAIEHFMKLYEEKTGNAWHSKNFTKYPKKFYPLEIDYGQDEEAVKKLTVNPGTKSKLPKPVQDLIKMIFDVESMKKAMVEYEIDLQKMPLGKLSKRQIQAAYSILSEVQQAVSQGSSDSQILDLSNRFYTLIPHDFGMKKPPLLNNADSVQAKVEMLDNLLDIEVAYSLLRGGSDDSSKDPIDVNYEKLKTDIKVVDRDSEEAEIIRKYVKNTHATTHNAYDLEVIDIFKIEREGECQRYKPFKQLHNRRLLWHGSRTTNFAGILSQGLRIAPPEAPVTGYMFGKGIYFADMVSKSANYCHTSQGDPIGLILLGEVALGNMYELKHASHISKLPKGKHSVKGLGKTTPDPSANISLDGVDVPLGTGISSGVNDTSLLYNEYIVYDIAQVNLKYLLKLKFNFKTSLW
UniProt P28482: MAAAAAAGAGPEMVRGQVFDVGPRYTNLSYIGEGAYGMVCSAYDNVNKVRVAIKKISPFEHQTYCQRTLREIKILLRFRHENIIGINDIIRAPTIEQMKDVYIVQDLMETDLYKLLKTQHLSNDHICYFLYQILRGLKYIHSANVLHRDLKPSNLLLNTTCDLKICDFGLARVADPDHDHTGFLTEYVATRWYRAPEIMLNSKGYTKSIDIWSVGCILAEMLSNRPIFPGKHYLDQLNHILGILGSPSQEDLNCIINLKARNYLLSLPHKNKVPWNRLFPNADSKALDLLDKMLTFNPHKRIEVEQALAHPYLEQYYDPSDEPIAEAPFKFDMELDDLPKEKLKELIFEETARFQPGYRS

These are yes or no findings as the source states them, for the method shown. In cells and extracts the contact can be indirect. Some results given as binding are weak or reduced against the parent protein; the word gives no strength.

This assay deals with Poly-(ADP-ribose) transferase/polymerase-1 (human (endogenous in HAECs)) (UniProt P09874). In words: co-IP; HAECs (with or without oxLDL) harvested in lysis buffer; immunoprecipitation with anti-PARP1 antibody at 4°C overnight, protein A/G beads 4 h, washed five times with PBS; immunoblot with anti-phosphorylated ERK1/2 antibodies. Background: In western blotting, separated proteins are transferred to a membrane and probed.

Regarding “phosphorylated ERK2 (from UniProt P28482 1-360) (enzyme)”, the binding result is recorded as “binds”.
